± gives the standard deviation of the averaged measurements. Only a part is listed here, and it is no random draw. Most entries show no effect beyond the scatter of the controls.
compound: Nc1ncnc2c1ncn2[C@@H]1O[C@H](COP(=O)(O)OP(=O)(O)OP(=O)(O)O)[C@@H](O)[C@H]1O [adenosine triphosphate]; assay: NP40-soluble protein abundance relative to vehicle (solubility fold change) (ratio); higher = more soluble protein in presence of ATP; conditions: concentration: 0.1mM
Procedure, shortened: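 Eight concentrations, 0.1 to 10 mM, were tested on Jurkat crude lysate for 10 min at room temperature and then 3 min at 37 °C, in three independent experiments. The lysate was solubilised with 0.8% NP40 and benzonase, ultracentrifuged, and the supernatant TMT-labelled for LC-MS/MS. Each value is the fold change against the detergent-processed vehicle in its own replicate, from vsn-normalised intensities.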

Sequences of proteins named here, by UniProt entry; tags and fusion partners are left off. A change or cut given only in a name is not applied to a line headed by its entry.
UniProt Q9BQS8: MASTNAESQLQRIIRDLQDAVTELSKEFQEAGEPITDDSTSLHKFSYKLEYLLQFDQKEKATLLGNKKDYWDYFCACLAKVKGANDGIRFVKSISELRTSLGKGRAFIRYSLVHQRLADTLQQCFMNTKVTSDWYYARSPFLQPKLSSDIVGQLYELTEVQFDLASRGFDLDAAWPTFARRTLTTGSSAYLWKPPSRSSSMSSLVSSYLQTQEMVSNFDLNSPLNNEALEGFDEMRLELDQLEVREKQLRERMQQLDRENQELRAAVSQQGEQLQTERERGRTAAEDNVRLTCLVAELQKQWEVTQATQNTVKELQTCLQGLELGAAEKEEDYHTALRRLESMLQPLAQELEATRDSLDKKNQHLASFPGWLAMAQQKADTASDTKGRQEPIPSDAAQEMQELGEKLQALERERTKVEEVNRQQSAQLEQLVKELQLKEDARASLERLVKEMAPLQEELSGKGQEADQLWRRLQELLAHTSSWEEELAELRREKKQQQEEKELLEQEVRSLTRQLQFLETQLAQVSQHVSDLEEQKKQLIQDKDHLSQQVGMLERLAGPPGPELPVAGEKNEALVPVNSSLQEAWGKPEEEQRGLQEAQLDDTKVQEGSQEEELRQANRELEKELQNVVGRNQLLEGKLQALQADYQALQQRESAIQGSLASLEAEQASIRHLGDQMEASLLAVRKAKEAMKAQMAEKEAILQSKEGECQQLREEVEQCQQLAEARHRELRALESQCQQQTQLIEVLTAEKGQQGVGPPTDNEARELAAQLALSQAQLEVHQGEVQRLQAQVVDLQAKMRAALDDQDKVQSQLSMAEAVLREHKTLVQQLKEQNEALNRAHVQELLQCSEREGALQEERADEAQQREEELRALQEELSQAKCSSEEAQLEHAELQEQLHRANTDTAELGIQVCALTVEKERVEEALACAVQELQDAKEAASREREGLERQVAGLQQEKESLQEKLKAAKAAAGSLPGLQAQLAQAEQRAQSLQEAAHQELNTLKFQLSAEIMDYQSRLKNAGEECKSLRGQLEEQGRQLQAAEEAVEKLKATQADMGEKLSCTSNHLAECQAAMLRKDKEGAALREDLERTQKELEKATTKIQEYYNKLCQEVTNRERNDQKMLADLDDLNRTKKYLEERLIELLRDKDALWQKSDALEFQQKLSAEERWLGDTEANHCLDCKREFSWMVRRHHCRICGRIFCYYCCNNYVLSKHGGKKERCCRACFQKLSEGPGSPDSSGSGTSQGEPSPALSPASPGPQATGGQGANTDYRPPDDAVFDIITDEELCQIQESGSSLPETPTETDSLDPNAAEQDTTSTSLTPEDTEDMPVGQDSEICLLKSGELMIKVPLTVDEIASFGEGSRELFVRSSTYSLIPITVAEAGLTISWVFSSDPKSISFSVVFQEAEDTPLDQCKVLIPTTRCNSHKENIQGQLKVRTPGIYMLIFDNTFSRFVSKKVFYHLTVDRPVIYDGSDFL
UniProt Q9BUB5: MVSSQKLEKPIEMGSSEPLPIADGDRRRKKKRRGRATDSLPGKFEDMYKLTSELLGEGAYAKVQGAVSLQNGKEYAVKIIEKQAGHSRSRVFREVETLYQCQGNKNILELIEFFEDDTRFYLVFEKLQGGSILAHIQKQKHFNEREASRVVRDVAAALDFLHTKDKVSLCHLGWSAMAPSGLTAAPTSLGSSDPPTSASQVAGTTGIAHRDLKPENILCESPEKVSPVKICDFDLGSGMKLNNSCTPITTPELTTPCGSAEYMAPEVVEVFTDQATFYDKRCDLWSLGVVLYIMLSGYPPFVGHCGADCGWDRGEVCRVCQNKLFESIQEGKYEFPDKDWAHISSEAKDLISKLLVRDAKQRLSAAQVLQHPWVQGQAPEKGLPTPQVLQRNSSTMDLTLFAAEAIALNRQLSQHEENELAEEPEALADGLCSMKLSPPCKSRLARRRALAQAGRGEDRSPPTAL
UniProt Q9BYX2: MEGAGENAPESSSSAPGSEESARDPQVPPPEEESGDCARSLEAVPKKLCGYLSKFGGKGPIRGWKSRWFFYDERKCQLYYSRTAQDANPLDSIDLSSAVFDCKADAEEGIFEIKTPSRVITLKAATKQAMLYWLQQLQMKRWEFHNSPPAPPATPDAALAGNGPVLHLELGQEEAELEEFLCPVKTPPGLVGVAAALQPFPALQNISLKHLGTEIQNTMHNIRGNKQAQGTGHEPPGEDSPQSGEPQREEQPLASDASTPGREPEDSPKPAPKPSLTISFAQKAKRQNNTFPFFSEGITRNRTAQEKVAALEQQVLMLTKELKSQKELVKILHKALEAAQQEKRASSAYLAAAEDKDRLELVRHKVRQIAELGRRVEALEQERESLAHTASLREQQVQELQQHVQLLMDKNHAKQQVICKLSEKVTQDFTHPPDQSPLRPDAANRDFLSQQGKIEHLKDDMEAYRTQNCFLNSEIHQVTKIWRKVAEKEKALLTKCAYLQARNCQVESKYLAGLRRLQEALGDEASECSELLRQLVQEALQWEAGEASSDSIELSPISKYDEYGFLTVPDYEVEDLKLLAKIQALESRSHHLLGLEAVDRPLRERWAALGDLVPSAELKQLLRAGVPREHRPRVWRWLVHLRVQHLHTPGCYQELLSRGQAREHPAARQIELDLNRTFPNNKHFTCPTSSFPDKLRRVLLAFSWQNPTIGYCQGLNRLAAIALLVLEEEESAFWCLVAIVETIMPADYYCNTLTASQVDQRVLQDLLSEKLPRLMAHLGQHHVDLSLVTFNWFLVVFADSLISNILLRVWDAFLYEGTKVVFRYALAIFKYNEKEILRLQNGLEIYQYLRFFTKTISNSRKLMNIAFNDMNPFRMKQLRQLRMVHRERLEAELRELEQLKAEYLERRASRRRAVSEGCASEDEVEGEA
UniProt Q9BVA0, whole entry: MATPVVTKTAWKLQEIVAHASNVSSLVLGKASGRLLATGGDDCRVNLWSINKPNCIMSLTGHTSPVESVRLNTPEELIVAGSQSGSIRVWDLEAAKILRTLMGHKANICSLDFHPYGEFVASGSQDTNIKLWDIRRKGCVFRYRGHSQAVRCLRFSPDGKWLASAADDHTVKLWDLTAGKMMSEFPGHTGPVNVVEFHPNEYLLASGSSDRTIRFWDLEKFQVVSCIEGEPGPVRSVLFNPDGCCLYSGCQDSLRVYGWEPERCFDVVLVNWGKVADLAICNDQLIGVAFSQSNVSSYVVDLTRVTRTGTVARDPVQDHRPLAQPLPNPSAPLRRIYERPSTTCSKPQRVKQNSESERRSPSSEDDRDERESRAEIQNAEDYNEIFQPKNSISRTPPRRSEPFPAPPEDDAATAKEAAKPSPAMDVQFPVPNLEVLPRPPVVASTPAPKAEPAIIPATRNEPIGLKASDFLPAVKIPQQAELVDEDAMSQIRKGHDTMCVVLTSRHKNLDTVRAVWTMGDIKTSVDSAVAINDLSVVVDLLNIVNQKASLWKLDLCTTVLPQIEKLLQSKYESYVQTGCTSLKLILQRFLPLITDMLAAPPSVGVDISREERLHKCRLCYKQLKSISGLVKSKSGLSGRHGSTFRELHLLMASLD
UniProt Q9BTD8: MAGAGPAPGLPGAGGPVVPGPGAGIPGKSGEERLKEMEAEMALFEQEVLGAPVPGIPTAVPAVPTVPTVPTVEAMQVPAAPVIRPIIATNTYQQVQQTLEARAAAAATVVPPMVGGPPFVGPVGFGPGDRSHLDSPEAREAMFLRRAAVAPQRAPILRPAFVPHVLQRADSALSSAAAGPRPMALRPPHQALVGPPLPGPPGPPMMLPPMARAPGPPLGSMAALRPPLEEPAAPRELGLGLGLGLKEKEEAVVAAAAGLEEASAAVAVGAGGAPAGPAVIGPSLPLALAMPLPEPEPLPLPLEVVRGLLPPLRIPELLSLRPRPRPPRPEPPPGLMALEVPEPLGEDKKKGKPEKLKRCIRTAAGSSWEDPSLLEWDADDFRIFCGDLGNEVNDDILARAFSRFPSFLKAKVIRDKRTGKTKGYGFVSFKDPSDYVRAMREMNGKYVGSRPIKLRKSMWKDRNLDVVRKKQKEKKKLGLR
UniProt Q9BRT2: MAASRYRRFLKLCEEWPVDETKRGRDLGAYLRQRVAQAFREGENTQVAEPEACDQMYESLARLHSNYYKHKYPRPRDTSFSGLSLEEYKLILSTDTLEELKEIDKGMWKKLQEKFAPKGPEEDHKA
UniProt Q9BYE7: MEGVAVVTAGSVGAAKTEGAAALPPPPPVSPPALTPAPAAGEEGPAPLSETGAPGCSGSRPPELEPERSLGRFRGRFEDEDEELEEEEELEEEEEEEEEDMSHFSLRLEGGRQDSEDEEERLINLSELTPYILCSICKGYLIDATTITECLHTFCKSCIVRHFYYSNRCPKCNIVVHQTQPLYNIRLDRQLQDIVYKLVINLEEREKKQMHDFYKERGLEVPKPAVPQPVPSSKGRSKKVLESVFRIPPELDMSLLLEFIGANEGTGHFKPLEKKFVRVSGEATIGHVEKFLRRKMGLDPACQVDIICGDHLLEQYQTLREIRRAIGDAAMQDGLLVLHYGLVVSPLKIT
UniProt Q99536: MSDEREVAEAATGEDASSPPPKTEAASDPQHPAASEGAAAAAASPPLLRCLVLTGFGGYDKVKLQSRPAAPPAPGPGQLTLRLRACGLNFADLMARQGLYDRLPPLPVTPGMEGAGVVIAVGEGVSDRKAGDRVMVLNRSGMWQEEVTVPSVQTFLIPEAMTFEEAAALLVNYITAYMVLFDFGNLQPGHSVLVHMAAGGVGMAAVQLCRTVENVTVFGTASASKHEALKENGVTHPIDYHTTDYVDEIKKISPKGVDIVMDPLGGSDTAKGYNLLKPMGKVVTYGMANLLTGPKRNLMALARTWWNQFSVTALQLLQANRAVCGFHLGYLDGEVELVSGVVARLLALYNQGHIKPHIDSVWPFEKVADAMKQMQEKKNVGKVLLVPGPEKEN
UniProt Q99961: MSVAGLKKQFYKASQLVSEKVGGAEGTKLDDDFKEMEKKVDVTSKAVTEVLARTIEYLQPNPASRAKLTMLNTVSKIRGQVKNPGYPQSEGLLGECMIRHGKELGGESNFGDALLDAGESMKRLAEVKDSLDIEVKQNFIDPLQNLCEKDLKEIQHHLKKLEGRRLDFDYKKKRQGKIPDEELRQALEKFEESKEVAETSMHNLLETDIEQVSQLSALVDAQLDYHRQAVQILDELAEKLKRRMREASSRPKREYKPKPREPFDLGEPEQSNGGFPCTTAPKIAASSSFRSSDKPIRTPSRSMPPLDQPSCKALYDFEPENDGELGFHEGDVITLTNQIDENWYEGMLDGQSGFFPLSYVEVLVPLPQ
UniProt Q99640: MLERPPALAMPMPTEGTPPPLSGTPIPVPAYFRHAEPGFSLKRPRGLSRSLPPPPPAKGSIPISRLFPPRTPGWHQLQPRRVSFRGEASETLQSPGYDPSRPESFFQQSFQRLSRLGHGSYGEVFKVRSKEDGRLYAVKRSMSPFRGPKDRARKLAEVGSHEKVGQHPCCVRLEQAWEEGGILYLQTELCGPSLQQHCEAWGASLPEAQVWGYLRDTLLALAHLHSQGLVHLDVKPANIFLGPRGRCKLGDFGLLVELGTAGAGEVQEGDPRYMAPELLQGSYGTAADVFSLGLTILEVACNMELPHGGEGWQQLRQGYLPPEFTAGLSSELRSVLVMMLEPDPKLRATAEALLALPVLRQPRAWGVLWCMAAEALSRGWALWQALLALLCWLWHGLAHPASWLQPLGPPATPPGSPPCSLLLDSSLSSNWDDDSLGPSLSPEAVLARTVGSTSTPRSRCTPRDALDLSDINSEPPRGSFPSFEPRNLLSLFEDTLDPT
UniProt Q9BZF2: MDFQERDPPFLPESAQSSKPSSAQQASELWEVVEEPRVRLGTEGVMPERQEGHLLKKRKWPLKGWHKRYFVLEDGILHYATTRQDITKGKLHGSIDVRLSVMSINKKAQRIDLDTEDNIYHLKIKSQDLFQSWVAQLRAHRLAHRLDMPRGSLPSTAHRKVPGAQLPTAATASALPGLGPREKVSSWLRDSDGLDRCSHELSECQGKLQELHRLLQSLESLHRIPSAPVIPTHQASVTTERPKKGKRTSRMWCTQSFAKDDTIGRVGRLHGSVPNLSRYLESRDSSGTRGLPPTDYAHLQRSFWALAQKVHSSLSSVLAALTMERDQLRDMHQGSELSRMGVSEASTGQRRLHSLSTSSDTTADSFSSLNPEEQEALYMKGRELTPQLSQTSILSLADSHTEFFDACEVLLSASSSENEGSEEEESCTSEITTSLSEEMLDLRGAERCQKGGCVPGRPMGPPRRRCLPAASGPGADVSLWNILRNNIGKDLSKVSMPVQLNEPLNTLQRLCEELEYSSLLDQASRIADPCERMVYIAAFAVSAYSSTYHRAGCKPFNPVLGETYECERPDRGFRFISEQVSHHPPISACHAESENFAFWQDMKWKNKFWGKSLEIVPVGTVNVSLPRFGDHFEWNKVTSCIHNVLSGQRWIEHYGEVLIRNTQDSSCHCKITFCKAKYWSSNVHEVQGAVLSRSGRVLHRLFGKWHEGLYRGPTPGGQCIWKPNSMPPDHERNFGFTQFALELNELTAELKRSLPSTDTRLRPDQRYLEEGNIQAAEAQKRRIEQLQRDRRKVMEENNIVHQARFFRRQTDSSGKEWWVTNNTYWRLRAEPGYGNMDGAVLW

Target	NP40-soluble protein abundance
ACAT2 (UniProt Q9BWD1)	0.979 ± 0.038
UniProt Q9BQS8 and related entries	0.986 ± 0.018
UniProt Q9BSC4 and related entries	0.98 ± 0.011
UniProt Q9BZE9 and related entries	0.9735 ± 0.0056
UniProt Q9BXW6 and related entries	1.08 ± 0.092
UniProt Q9BUB5 and related entries	1.03 ± 0.033
UniProt Q9BYX2 and related entries	1.07 ± 0.088
UniProt Q99707 and related entries	1.02 ± 0.035
KATNB1 (UniProt Q9BVA0)	1.009 ± 0.0077
ARID3A (UniProt Q99856)	0.984 ± 0.022
EIF2A (UniProt Q9BY44)	0.99 ± 0.046
UniProt Q9BYD1 and related entries	1.03 ± 0.13
AGPAT1 (UniProt Q99943)	0.99697 ± 0.00078
UniProt Q9BTD8 and related entries	1.01 ± 0.065
UniProt Q9BW91 and related entries	1.03 ± 0.071
MRPS26 (UniProt Q9BYN8)	0.93 ± 0.12
ECSIT (UniProt Q9BQ95)	0.993 ± 0.05
UniProt Q99613 and related entries	0.969 ± 0.06
DCUN1D5 (UniProt Q9BTE7)	1.05 ± 0.035

Target	NP40-soluble protein abundance
UniProt Q9BW83 and related entries	1.04 ± 0.1
UniProt Q96TA1 and related entries	1.02 ± 0.021
UniProt Q99490-2|Q99490	1.01 ± 0.025
UniProt Q9BRT2 and related entries	0.978 ± 0.11
RNF2 (UniProt Q99496)	1 ± 0.016
RBM4 (UniProt Q9BWF3)	1 ± 0.021
PCGF6 (UniProt Q9BYE7)	0.953 ± 0.11
PARD6B (UniProt Q9BYG5)	1.02 ± 0.055
VAT1 (UniProt Q99536)	0.995 ± 0.046
SH3GL1 (UniProt Q99961)	1 ± 0.065
UniProt Q99941 and related entries	0.953 ± 0.034
SDF2 (UniProt Q99470)	1 ± 0.046
UniProt Q99640 and related entries	0.974 ± 0.051
UniProt Q99766	1.03 ± 0.055
CORO1B (UniProt Q9BR76)	1.02 ± 0.09
SPATA5L1 (UniProt Q9BVQ7)	1.08 ± 0.051
UniProt Q9BZI7 and related entries	0.997 ± 0.01
UniProt Q9BZF2	1.13 ± 0.11

same assay, conditions: concentration: 0.5mM

Target	NP40-soluble protein abundance
ACAT2 (UniProt Q9BWD1)	0.99 ± 0.053
UniProt Q9BQS8 and related entries	0.962 ± 0.032
UniProt Q9BSC4 and related entries	1.06 ± 0.013
UniProt Q9BZE9 and related entries	0.981 ± 0.038
UniProt Q9BXW6 and related entries	1.04 ± 0.15
UniProt Q9BUB5 and related entries	1.02 ± 0.037
UniProt Q9BYX2 and related entries	1.02 ± 0.011
UniProt Q99707 and related entries	1.04 ± 0.042
KATNB1 (UniProt Q9BVA0)	0.992 ± 0.021
ARID3A (UniProt Q99856)	0.995 ± 0.018
EIF2A (UniProt Q9BY44)	1.01 ± 0.032
UniProt Q9BYD1 and related entries	1.02 ± 0.057
AGPAT1 (UniProt Q99943)	1.003 ± 0.0044
UniProt Q9BTD8 and related entries	1.02 ± 0.084
UniProt Q9BW91 and related entries	1.04 ± 0.074
MRPS26 (UniProt Q9BYN8)	0.885 ± 0.17
ECSIT (UniProt Q9BQ95)	0.992 ± 0.053
UniProt Q99613 and related entries	0.957 ± 0.07
DCUN1D5 (UniProt Q9BTE7)	0.968 ± 0.075

Target	NP40-soluble protein abundance
UniProt Q9BW83 and related entries	1.02 ± 0.1
UniProt Q96TA1 and related entries	1.03 ± 0.027
UniProt Q99490-2|Q99490	0.981 ± 0.037
UniProt Q9BRT2 and related entries	0.909 ± 0.12
RNF2 (UniProt Q99496)	1.07 ± 0.015
RBM4 (UniProt Q9BWF3)	1.02 ± 0.03
PCGF6 (UniProt Q9BYE7)	1 ± 0.028
PARD6B (UniProt Q9BYG5)	1.06 ± 0.06
VAT1 (UniProt Q99536)	1.04 ± 0.057
SH3GL1 (UniProt Q99961)	0.997 ± 0.01
UniProt Q99941 and related entries	1.1 ± 0.026
SDF2 (UniProt Q99470)	0.957 ± 0.083
UniProt Q99640 and related entries	1.02 ± 0.057
UniProt Q99766	1.01 ± 0.029
CORO1B (UniProt Q9BR76)	1.1 ± 0.075
SPATA5L1 (UniProt Q9BVQ7)	1.32 ± 0.12
UniProt Q9BZI7 and related entries	1.03 ± 0.053
UniProt Q9BZF2	1.1 ± 0.11

From the supplement of paper PMC6411743
